# Data from US20130254944A1, “Herbicide Tolerant Soybeans and Methods of Use” (PIONEER HI BRED INTERNATIONAL INC, priority 2012, published 2013).
# System: soybean having both the Als1 and Als2 mutations
# Assay: Greenhouse postemergence test of ALS-inhibiting herbicides and isobole analysis, soybean with Als1 and Als2 mutations
# Assay type: in vivo
# Conditions: interaction of Als1 and Als2 mutations
# Procedure: Soybean lines having wild type als1 & 2 genes, the Als1 mutation, the Als2 mutation, or both the Als1 and Als2 mutations were evaluated for their response to various herbicides. Two seeds from each line were planted into 4-inch pots containing Redi-Earth potting mix (Sun Gro Horticulture Canada Ltd. 52130 RR65, Seba Beach, Alberta TOE 2B0), with two replications planted for each treatment. Pots were placed in flats at 15 pots/flat, and the resulting plants were grown in a greenhouse environment supplemented with lighting (16 hr photoperiod) for the duration of the test. Selected herbicides representing the mode of action that inhibits the acetolactate synthase enzyme, also known as the acetohydroxyacid synthase enzyme, were applied postemergence to soybean when soybean plants were at the V2 growth stage, which is the stage at which the first two trifoliolate leaves were expanded.
# Eleven active ingredients representing the five chemical families with herbicidal activity on the acetolactate synthase enzyme were tested. These herbicides can cause a phytotoxic response in wild type soybean plants. The five chemical families tested were sulfonylaminocarbonyltriazolinone (also known as triazolinone), imidazolinone, sulfonylurea, pyrimidinylthiobenzoate, and triazolopyrimidine. Application rates ranged from 0.5 times to eight times the currently labeled application rate for each active ingredient with spray application volume at 30 gallons/acre. The application rates tested were 0.5×, 1×, 2×, 4× and 8× the label rate for each herbicide. Herbicidal active ingredients were applied as formulated materials dispersed in water containing 0.25% nonionic surfactant (Trend® 90).
# The test was evaluated by visually scoring plant phenotype 14 days after the herbicides were applied. Controls consisted of soybean plants of the same variety that received no herbicide treatments for each of all the varieties tested. Soybean response was recorded on a zero to 100 visual scale in which zero is no phytotoxic response and 100 is plant death fourteen days after the herbicides were applied. Soybean response (percent phytotoxicity) to postemergence applications of herbicides inhibiting the acetolactate synthase enzyme test results are shown in Table 1.
# Results in Table 1 were evaluated using the isobole method for analyzing interactions. […] Here the biologically active agents that are being assessed for interaction (synergy) are gene mutations in soybean. The effectiveness of the genes in providing improved tolerance to ALS-inhibiting herbicides was assessed by applying increasing doses of herbicides to each soybean line with its mutation(s).
# An isobole reduces a dose response surface in three dimensional space to a two dimensional plot by fixing a defined response level (e.g., 50% response). The isobole plot is a graph in the Cartesian plane with a straight line connecting the isoeffective rates of the individual components of the combination. This straight line represents expected responses for zero interactive combinations. The isoeffective rate used to create the isobole is often the EC50, the rate estimated to elicit 50% response, but other ECx values can be used. Since the isobole method is based on the potency of the components of the combination, an experimental design testing a range of rates expected to elicit the full range of responses (e.g., 0 to maximum response) is best. (Ferry et al. (2005) 2005 Conference on Applied Statistics in Agriculture Proceedings pp 33-50, Manhattan, Kans., Kansas State Univ.; Green and Streibig (1993) Herbicide Mixtures, pp 117-134 in Herbicide Bioassays, Streibig and Hudsk Eds, CRC, Boca Raton, Fla.).
# Loglogistic dose response curves were fit to percent phytotoxicity response data using log 10 of dose (McCullagh and Nelder (1989) Generalized Linear Models, Chapman & Hall, London). Curves were fit using the logit link with normal errors. […]
smiles,measurement,setting,value
COc1nn(C(=O)NS(=O)(=O)c2ccccc2OC(F)(F)F)c(=O)n1C [Flucarbazone],"Isobole Result, Als1 + Als2",isobole analysis based on EC10,Synergy
same,"Isobole Result, Als1 + Als2","isobole analysis based on EC10, listed as flucarbazon",Synergistic interaction
CC(C)C1(C)N=C(c2ncccc2C(=O)O)NC1=O (stereo not shown) [Imazapyr],"Isobole Result, Als1 + Als2",isobole analysis based on EC50,Synergy
same,"Isobole Result, Als1 + Als2","isobole analysis based on EC50, listed as imazapyr",Synergistic interaction
CCc1cnc(C2=NC(C)(C(C)C)C(=O)N2)c(C(=O)O)c1 (stereo not shown) [Imazethapyr],"Isobole Result, Als1 + Als2",isobole analysis based on EC10,Possible Synergy
same,"Isobole Result, Als1 + Als2","isobole analysis based on EC10, listed as imazethapyr",possible synergy effect
COc1cc(OC)nc(NC(=O)NS(=O)(=O)c2ncccc2C(=O)N(C)C)n1 [Nicosulfuron],"Isobole Result, Als1 + Als2",isobole analysis based on EC10,Probable Synergy
same,"Isobole Result, Als1 + Als2","isobole analysis based on EC10, listed as nicosulfuron",probable synergy
COc1cc(OC)nc(Sc2cccc(Cl)c2C(=O)O)n1 [Pyrithiobac sodium],"Isobole Result, Als1 + Als2",isobole analysis based on EC50,Synergy
same,"Isobole Result, Als1 + Als2","isobole analysis based on EC50, listed as pyrithiobac sodium",Synergistic interaction
CCS(=O)(=O)c1cccnc1S(=O)(=O)NC(=O)Nc1nc(OC)cc(OC)n1 [Rimsulfuron],"Isobole Result, Als1 + Als2",isobole analysis based on EC10,Synergy
same,"Isobole Result, Als1 + Als2","isobole analysis based on EC10, listed as rimsulfuron",Synergistic interaction
Cc1cc(C)nc(NC(=O)NS(=O)(=O)c2ccccc2C(=O)O)n1 [Sulfometuron],"Isobole Result, Als1 + Als2",isobole analysis based on EC10,Synergy
same,"Isobole Result, Als1 + Als2","isobole analysis based on EC10, listed as sulfometuron",Synergistic interaction
COc1nc(C)nc(N(C)C(=O)NS(=O)(=O)c2ccccc2C(=O)O)n1 [Tribenuron],"Isobole Result, Als1 + Als2",isobole analysis based on EC10,Synergy
same,"Isobole Result, Als1 + Als2","isobole analysis based on EC10, listed as tribenuron",Synergistic interaction
